Data: PubChem BioAssay AID493014 (National Center for Advancing Translational Sciences (NCATS), 2011)
This is one part of the list. Shown are side measurements of this screen, not its main read-out; they come without a call. Most of these compounds were active or inconclusive in the main read-out, so they are no random draw. The note in brackets gives the kind of curve behind each potency; many fits are weak.

Assay: qHTS Assay to Find Inhibitors of Chronic Active B-Cell Receptor Signaling
Settings: ABC-DLBCL IkBa-CBG/CBR reporter, luminescence ratio (green luciferase fused to IkBa over red control in TMD8 lymphoma cells), 4 h
Procedure, shortened: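 Concentration-response series (up to 46 uM) were applied to TMD8 dual-reporter cells for 4 h at 37C with doxycycline. Green/red ratio, after filter-overlap correction, defined %Activity; red signal alone was normalised to basal cells and zero luminescence.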

[1] = measured here: CBR red luminescence, cell number

Compound	AC50 [1]	AC50 (measured here: IkBa-CBG green luminescence)
O=C(Nc1ccc(S(=O)(=O)Nc2nccs2)cc1)C1=NN(c2ccccc2)C(=O)CC1	35.5 µM [falling, single point]	–
O=C(Nc1nc(-c2ccc(F)c(F)c2)cs1)C1=COCCO1	29.1 µM [falling, single point]	–
c1ccc(CCSc2ncnc3nc[nH]c23)cc1	1.46 µM [rising, partial curve, poor fit]	–
Cc1cc(C)n(-c2nc(NCCN(C)C)c3c4c(sc3n2)CCCC4)n1	35.5 µM [falling, single point]	–
C/C(=N\NC(=O)c1ccccc1F)c1cccc(NC(=O)c2ccc(C)cc2)c1	35.5 µM [falling, single point]	–
Cc1cc(NC(=O)c2cc(-c3ccco3)on2)no1	35.5 µM [falling, single point]	–
CCN(CC)C(=O)C1CCN(Cc2cn(C)nc2-c2ccc(Oc3ccccc3)cc2)CC1	6.31 µM [rising, single point]	–
CCn1c(=N)n(CC(=O)c2cccc([N+](=O)[O-])c2)c2ccccc21	8.2 µM [rising, partial curve, poor fit]	–
COC(=O)[C@@]1(Cc2ccc(F)cc2)[C@H]2c3cc(C(=O)N4CCCC4)n(CCCNc4ncc(C(F)(F)F)cc4Cl)c3C[C@H]2CN1C(=O)c1ccccc1	5.62 µM [falling, full curve]	–
Cc1ccc(NC(=O)Cn2cccc2)c(Br)c1	14.1 µM [rising, partial curve, poor fit]	–
CCOC(=O)c1sc(Nc2nc3c(F)cccc3s2)cc1C	14.6 µM [rising, single point]	–
O=c1c2c3nc4ccccc4nc3n(Cc3ccccc3)c2ncn1Cc1ccco1	0.731 µM [falling, full curve, poor fit]	–
COc1cccc(/C=N\NC(=O)C2=NNC(=O)C2C)c1O (configuration not stated)	0.92 µM [falling, full curve]	–
Cc1cc(S(=O)(=O)Nc2ccc(C(=O)NCC3(N4CCCCC4)CCCCC3)cc2)ccc1F	20.6 µM [falling, single point]	–
CCCCOc1ccc(C(=O)OC2CC(C)N(C)CC2C)cc1 (configuration not stated)	4.11 µM [falling, single point]	6.51 µM [rising, partial curve, poor fit]
CCCOc1ccc(C(=O)CCNC(Cc2c[nH]c3ccccc23)C(=O)O)cc1 (configuration not stated)	25.1 µM [falling, single point]	–
CN1CCc2c(n(CC(O)CN3C(=O)c4ccccc4S3(=O)=O)c3ccccc23)C1=O (configuration not stated)	4.61 µM [rising, single point]	–
C=C(C)CNC(=S)NNC(=O)c1ccc(Br)cc1	8.2 µM [falling, partial curve]	–
CC(C)(C)c1ccc(S(=O)(=O)Nc2ccc(Cc3ccncc3)cc2)cc1	29.1 µM [falling, single point]	–
Cc1n[nH]c(C)c1Sc1ccccc1N=Cc1cc([N+](=O)[O-])ccc1O	8.2 µM [rising, single point]	–
CC1(C(=O)N/N=C/c2ccc3c(c2)OCO3)CC1(Br)Br (configuration not stated)	11.2 µM [falling, single point]	–

Filtered by structure, those above with a thiophene ring, fused or not (two)
Compound	AC50 [1]	AC50 (measured here: IkBa-CBG green luminescence)
Cc1cc(C)n(-c2nc(NCCN(C)C)c3c4c(sc3n2)CCCC4)n1	35.5 µM [falling, single point]	–
CCOC(=O)c1sc(Nc2nc3c(F)cccc3s2)cc1C	14.6 µM [rising, single point]	–

More results

Compound	AC50 [1]	AC50 (measured here: IkBa-CBG green luminescence)
C[C@H](CO)N1C[C@H](C)[C@H](CN(C)S(=O)(=O)c2cccs2)Oc2ccc(NC(=O)Nc3ccc4c(c3)OCO4)cc2CC1=O	29.1 µM [rising, single point]	–
O=C(Nc1nnc(-c2cccs2)o1)C1CC1	11.2 µM [falling, partial curve, poor fit]	–
Cc1ccnc(NC(c2ccccn2)c2c(C)[nH]c3ccccc23)c1 (configuration not stated)	11.2 µM [falling, partial curve]	–
CCOc1cc2[nH]c(=S)n(CCOC)c(=O)c2cc1OCC	9.2 µM [falling, partial curve, poor fit]	–
CSc1nc2nc3c(c(=O)n2[nH]1)CCC3	0.082 µM [falling, full curve, poor fit]	–
O=C(Nc1ccc(N2CCN(C(=O)c3ccco3)CC2)c(Cl)c1)c1cccs1	13 µM [falling, partial curve]	–
Nc1ccc(C(=O)Nc2ccc(NC(=O)c3ccco3)c(O)c2)cc1	2.82 µM [falling, partial curve, poor fit]	–
O=c1oc(-c2ccc(O)c(O)c2)cc2cccc(O)c12	32.6 µM [falling, single point]	–
O=C(c1nnc(-c2ccc(Cl)cc2)o1)C1CCCC1	0.562 µM [rising, partial curve, poor fit]	–
O=C(Nc1nccs1)c1ccc(-c2ccccc2[N+](=O)[O-])o1	7.94 µM [falling, partial curve]	–
S=C(NCc1ccc(Cl)cc1)NC1CCN(Cc2ccccc2)CC1	12.6 µM [falling, partial curve, poor fit]	–
C=C(Cl)COc1ccc2c(C)cc(=O)oc2c1	7.31 µM [rising, partial curve]	–
CCN1C(=O)c2cccc3c(S(=O)(=O)Nc4c(C)n(C)n(-c5ccccc5)c4=O)ccc1c23	1.03 µM [falling, full curve, poor fit]	–
O=C(NCC1CCCO1)c1ccc(N2C(=O)C3CCCCC3C2=O)cc1 (configuration not stated)	35.5 µM [rising, partial curve, poor fit]	–
COCC(C)N1CCC(Oc2cccc(C(=O)NCCc3ccccc3)c2)CC1 (configuration not stated)	6.31 µM [falling, full curve]	–
Fc1ccc(CSc2nc3ncc(Br)cc3[nH]2)cc1	5.8 µM [falling, full curve, poor fit]	–
COc1ccc(/C=C/C(=O)O)cc1S(=O)(=O)N1CCc2ccccc21	6.31 µM [rising, single point]	–
O=C(CN1CCCC1)N1CCCC(c2ccc(F)cc2)c2ccc(F)cc21 (configuration not stated)	29.1 µM [falling, single point]	–
CNS(=O)(=O)c1cccc(C(=O)OCC(=O)NC2CCCC(C)C2C)c1 (configuration not stated)	29.1 µM [rising, single point]	–
N=c1occ(C(=O)c2cc(F)ccc2O)cc1C(=O)NC1CCCCC1	11.2 µM [falling, partial curve]	–
